For assay [1], the target named is RTN3L (co-overexpressed in HEK293T) (human) (UniProt O95197). The assay can be described thus: co-IP; proteins co-overexpressed in HEK293T for 24 hr; IP with anti-HA-agarose (overnight) or GFP-TRAP beads (2 hr) at 4°C; 50 mM HEPES pH 7.5, 150 mM NaCl, 1% Triton X-100, 10% glycerol.
The next assay deals with FLAG-HA-RTN3L (human) (UniProt O95197). The assay can be described thus: co-IP; anti-HA-agarose IP of FLAG-HA-RTN isoforms from U2OS TRex stable lines (doxycycline 1 µg/ml 24 hr, bafilomycin A1 200 ng/ml 2 hr); 50 mM Tris/HCl pH 8, 120 mM NaCl, 1% NP40; overnight at 4°C; blot for endogenous GABARAP and GABARAP-L1.
For assay [2], the target named is GST-LC3C (UniProt Q9BXW4). The assay can be described thus: pull-down; GST fusions on Glutathione Sepharose 4B beads incubated with lysates of transfected HEK293T cells overnight at 4°C; 50 mM HEPES pH 7.5, 150 mM NaCl, 1% Triton X-100, 10% glycerol; blot for the HA or FLAG tag; only the target purified.
Assay [3] addresses FAM134B (co-overexpressed in HEK293T) (human) (UniProt Q9H6L5). The assay can be described thus: co-IP; proteins co-overexpressed in HEK293T for 24 hr; IP with anti-HA-agarose (overnight) or GFP-TRAP beads (2 hr) at 4°C; 50 mM HEPES pH 7.5, 150 mM NaCl, 1% Triton X-100, 10% glycerol.
For assay [4], the target named is RTN1L (co-overexpressed in HEK293T) (human) (UniProt Q16799). The assay is described as above.
The target in assay [5] is T1, RTN2L (co-overexpressed in HEK293T) (human) (UniProt O75298).
T1 sequence: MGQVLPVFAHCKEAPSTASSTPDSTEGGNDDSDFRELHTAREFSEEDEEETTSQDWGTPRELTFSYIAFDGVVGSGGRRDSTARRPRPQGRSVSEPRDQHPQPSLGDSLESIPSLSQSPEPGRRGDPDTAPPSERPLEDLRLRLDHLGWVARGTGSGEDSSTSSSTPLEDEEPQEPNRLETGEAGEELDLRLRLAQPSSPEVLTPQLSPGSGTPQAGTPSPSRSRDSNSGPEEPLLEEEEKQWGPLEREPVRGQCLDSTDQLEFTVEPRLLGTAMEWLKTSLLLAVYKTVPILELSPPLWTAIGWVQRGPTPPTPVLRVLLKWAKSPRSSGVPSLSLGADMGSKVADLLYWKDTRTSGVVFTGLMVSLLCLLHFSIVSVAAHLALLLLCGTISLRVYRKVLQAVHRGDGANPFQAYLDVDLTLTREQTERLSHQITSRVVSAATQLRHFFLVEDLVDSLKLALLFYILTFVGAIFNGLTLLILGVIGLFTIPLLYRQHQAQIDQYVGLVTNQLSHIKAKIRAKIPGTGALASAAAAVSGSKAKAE
The description is as above.

The chains behind the UniProt entries cited, without tags or fusion partners. Where a name states a change or a piece, a line headed by the entry shows the natural chain unless it says otherwise. A line that says so, or that is headed by a name, gives the form on record, which may keep a tag or linker.
UniProt O95197: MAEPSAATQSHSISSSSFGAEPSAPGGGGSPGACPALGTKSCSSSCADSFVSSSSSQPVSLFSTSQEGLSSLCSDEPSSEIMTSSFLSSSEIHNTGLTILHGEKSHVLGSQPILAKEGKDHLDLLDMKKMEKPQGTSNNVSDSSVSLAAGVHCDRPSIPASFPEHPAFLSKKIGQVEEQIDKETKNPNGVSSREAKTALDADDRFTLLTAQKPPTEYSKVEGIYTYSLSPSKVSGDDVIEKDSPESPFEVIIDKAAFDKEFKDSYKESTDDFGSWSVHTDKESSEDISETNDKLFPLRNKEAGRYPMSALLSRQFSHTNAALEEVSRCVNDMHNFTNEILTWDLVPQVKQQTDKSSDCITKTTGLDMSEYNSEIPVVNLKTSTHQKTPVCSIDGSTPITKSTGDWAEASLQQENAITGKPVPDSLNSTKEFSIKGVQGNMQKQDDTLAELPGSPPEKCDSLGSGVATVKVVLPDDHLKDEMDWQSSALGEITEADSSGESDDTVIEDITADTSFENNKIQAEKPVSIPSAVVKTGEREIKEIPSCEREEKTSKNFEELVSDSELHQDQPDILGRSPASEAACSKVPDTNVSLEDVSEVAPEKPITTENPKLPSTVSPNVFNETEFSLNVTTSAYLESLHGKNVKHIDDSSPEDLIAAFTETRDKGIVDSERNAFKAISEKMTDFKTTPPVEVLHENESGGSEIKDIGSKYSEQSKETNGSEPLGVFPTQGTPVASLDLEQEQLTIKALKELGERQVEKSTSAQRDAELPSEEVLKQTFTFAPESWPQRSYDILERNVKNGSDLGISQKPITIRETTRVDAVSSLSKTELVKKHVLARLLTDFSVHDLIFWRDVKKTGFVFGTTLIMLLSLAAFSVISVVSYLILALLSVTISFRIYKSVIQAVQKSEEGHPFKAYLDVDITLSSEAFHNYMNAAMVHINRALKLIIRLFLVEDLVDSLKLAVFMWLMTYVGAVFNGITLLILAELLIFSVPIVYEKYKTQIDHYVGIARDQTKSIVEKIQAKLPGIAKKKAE
HA tagged RTN3S (O95197-3, form named): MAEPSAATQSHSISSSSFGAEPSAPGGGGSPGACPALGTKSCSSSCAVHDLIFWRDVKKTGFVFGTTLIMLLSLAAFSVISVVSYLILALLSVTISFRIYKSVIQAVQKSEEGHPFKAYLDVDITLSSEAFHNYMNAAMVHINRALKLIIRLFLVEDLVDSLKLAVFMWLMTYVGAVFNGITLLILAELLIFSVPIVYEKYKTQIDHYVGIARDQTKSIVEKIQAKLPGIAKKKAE
UniProt Q9BXW4: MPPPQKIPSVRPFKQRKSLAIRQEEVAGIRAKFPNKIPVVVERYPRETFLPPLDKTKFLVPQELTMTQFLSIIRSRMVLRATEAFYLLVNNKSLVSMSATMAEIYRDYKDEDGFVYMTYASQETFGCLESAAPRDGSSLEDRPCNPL
UniProt Q9H6L5: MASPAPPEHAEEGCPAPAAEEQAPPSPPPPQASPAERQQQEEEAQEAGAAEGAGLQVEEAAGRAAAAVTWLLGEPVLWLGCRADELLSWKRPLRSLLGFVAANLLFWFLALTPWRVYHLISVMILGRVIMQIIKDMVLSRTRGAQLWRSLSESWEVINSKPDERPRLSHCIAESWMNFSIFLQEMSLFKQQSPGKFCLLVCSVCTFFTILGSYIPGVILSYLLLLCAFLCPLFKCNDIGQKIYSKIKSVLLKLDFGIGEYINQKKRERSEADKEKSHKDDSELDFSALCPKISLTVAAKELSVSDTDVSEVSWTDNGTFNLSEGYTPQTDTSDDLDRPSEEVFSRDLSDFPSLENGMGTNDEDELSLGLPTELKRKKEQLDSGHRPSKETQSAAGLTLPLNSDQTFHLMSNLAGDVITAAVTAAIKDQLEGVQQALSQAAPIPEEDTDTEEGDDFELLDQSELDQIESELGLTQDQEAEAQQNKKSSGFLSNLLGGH
UniProt Q16799: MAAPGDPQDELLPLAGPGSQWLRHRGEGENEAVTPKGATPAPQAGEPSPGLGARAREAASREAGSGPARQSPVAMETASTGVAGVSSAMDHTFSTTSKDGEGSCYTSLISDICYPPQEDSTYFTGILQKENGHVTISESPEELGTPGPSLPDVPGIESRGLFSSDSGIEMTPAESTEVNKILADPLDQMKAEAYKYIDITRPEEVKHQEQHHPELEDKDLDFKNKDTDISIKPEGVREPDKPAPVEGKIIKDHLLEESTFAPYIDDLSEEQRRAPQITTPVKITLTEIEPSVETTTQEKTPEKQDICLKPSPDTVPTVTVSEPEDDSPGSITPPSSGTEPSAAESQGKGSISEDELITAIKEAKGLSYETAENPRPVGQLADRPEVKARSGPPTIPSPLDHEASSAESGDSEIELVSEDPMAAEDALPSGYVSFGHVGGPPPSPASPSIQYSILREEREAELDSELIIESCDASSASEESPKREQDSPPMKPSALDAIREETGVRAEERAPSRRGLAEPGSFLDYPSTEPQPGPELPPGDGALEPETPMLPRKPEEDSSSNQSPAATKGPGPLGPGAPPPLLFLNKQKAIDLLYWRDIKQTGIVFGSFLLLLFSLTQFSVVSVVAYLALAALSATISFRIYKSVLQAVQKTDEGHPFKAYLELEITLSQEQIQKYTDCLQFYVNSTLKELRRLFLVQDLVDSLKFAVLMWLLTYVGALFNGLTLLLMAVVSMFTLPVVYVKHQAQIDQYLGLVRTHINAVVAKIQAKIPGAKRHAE
RTN1S (co-overexpressed in HEK293T) (Q16799-3, form named): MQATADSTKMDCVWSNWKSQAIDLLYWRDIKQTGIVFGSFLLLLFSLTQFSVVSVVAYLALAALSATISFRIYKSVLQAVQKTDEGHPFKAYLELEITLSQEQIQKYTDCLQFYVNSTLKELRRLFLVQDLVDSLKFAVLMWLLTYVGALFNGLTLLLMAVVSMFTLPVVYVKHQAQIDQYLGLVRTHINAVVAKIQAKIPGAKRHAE
UniProt Q9NQC3: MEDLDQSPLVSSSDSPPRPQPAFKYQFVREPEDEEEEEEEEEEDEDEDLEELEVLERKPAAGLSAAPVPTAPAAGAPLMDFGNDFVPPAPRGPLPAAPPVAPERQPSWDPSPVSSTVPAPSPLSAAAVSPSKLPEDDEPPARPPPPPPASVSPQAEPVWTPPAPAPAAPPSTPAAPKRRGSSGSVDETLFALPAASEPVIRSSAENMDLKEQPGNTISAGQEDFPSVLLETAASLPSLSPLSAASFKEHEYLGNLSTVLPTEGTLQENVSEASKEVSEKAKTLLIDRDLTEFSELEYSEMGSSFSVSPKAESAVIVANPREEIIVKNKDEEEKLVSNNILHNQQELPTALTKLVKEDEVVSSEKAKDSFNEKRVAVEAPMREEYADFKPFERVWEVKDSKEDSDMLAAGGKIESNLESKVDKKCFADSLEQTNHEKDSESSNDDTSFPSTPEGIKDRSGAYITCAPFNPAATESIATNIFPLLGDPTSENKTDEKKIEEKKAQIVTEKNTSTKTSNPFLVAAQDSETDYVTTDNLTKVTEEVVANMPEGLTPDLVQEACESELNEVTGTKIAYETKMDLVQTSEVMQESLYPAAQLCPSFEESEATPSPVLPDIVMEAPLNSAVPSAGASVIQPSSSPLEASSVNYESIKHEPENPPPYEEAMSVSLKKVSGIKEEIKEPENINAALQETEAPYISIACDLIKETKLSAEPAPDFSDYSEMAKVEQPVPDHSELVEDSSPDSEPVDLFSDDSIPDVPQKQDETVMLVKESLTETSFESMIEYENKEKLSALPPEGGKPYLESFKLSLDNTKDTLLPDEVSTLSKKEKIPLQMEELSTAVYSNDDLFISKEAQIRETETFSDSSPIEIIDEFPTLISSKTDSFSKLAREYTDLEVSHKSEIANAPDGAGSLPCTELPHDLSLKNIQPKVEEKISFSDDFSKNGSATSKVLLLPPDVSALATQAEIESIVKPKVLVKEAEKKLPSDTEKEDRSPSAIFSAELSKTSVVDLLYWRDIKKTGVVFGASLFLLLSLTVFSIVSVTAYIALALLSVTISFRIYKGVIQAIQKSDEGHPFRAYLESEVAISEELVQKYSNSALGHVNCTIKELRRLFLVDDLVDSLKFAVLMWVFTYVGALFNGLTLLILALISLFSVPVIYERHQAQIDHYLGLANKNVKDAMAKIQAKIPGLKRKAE
RTN4S (co-overexpressed in HEK293T) (Q9NQC3-3, form named): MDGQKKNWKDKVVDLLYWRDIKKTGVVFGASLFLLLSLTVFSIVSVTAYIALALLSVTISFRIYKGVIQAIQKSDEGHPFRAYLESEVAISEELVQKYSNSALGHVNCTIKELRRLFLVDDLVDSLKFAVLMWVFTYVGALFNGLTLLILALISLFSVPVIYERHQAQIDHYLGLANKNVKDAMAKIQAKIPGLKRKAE
UniProt O95166: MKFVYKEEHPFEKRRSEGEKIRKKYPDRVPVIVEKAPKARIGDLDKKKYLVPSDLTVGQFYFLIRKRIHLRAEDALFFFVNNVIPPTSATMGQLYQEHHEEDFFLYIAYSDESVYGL
UniProt Q86VR2: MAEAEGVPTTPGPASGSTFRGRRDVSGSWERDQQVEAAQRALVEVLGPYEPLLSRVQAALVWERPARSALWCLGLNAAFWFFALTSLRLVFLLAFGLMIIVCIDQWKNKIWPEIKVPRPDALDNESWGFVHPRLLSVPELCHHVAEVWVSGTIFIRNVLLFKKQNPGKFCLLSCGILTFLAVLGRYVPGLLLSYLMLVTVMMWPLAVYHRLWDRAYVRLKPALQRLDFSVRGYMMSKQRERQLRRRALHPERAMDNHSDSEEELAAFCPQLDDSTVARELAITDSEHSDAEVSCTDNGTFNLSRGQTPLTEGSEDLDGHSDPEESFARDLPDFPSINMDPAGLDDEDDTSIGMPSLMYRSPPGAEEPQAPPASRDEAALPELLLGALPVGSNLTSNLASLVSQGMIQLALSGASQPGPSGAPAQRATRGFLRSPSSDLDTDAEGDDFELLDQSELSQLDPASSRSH

The target of assay [6] is RTN4L (co-overexpressed in HEK293T) (human) (UniProt Q9NQC3). Described as above.
In assay [7] the target is GST-LC3C (UniProt Q9BXW4). Description: pull-down; GST fusions on Glutathione Sepharose 4B beads incubated with A549 cell lysate (the methods name SH-SY5Y) overnight at 4°C; blot for endogenous RTN3; only the target purified.

These are yes or no findings as the source states them, for the method shown. In cells and extracts the contact can be indirect. For some assays here: Binding calls can cover weak binding; strength is not graded here.

Regarding “RTN1L (co-overexpressed in HEK293T) (from UniProt Q16799-1 1-776)”, the binding entry in assay [1] was “binds”.

For the molecule “GABARAP (endogenous) (from UniProt O95166 1-117)”, the binding result with FLAG-HA-RTN3L (human) is listed as “binds”.

With “HA tagged RTN2L (from UniProt O75298-1 1-545)”, in the assay with GST-LC3C [2], the binding result is listed as “no binding”.

In the case of “RTN4S (co-overexpressed in HEK293T) (from UniProt Q9NQC3-3 1-199)”, the binding result in assay [1] is “binds”.

For the molecule “RTN1S (co-overexpressed in HEK293T) (from UniProt Q16799-3 1-208)”, the binding result in assay [1] is on record as “binds”.

With “FAM134B (co-overexpressed in HEK293T) (from UniProt Q9H6L5 1-497)”, the binding result in assay [1] is “no binding”.

With “RTN3L (co-overexpressed in HEK293T) (from UniProt O95197-1)”, the binding entry in assay [3] is “no binding”; in assay [4], “binds”; in assay [5], “binds”; in assay [6] it was “binds”.

Consider “HA tagged RTN3S (from UniProt O95197-3 1-236)”, for which, in the assay with GST-LC3C [2], the binding result is on record as “no binding”.

Take “endogenous RTN3 (from UniProt O95197 1-1032)”: the binding result in the assay with GST-LC3C [7] is listed as “binds”.

As to “FAM134C (co-overexpressed in HEK293T) (from UniProt Q86VR2 1-466)”, the binding entry in assay [1] is recorded as “no binding”.

Regarding “RTN4L (co-overexpressed in HEK293T) (from UniProt Q9NQC3-1 1-1192)”, the binding entry in assay [1] is reported as “binds”.

B1: RTN2L (co-overexpressed in HEK293T) (protein, UniProt O75298-1 1-545)
chain: T1 sequence
Consider B1, for which the binding entry in assay [1] is on record as “binds”.

B2: FAM134A (co-overexpressed in HEK293T) (protein, UniProt Q8NC44 1-543)
chain: MASGGGGGNTGAGGGPGMGLSLGLGLGLSLGMSEATSEAEEEAATAEAVGRLATTLWLRLRGWEAVLAAAQRLLVWEKPLHSLVTAAALNGLFWLLSSSSLRPFFLLSVSLLAYFLLDLWQPRFLPDVSASSPEEPHSDSEGAGSGARPHLLSVPELCRYLAESWLTFQIHLQELLQYKRQNPAQFCVRVCSGCAVLAVLGHYVPGIMISYIVLLSILLWPLVVYHELIQRMYTRLEPLLMQLDYSMKAEANALHHKHDKRKRQGKNAPPGGDEPLAETESESEAELAGFSPVVDVKKTALALAITDSELSDEEASILESGGFSVSRATTPQLTDVSEDLDQQSLPSEPEETLSRDLGEGEEGELAPPEDLLGRPQALSRQALDSEEEEEDVAAKETLLRLSSPLHFVNTHFNGAGSPPDGVKCSPGGPVETLSPETVSGGLTALPGTLSPPLCLVGSDPAPSPSILPPVPQDSPQPLPAPEEEEALTTEDFELLDQGELEQLNAELGLEPETPPKPPDAPPLGPDIHSLVQSDQEAQAVAEP
For the molecule B2, the binding result in assay [1] was “no binding”.

B3: RTN2S (co-overexpressed in HEK293T) (protein, UniProt O75298-3 1-205)
chain: MGSKVADLLYWKDTRTSGVVFTGLMVSLLCLLHFSIVSVAAHLALLLLCGTISLRVYRKVLQAVHRGDGANPFQAYLDVDLTLTREQTERLSHQITSRVVSAATQLRHFFLVEDLVDSLKLALLFYILTFVGAIFNGLTLLILGVIGLFTIPLLYRQHQAQIDQYVGLVTNQLSHIKAKIRAKIPGTGALASAAAAVSGSKAKAE
For B3, in assay [1], the binding result is reported as “binds”.

The values above are taken from paper PMC5517149.
